Experimental data: the supplement of paper PMC12067093, “Discovery and optimisation of a covalent ligand for TRIM25 and its application to targeted protein ubiquitination” (Chemical Science, 2025)
This is one part of the list.

Compound: CC1Cc2ccccc2N1C(=O)C1CCCN(C1)C(=O)CCl (mixture of isomers) [TRIM25 ligand 11 (diastereomer mixture)]
Assay: probe-labelled cysteine peptide fold change vs DMSO (competition) (log2 fold change); higher = less target engagement (more negative = stronger competition)
Conditions: THP-1, incubation time: 4 h
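Further: competitive chemoproteomic profiling in live THP-1 cells with an iodoacetamide desthiobiotin (IA-DTB) probe, comparing probe-labelled peptide intensities in compound-treated cells against DMSO-treated controls.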

Target	probe-labelled cysteine peptide fold change (10 µM)	probe-labelled cysteine peptide fold change (50 µM)
GOLGA3_Q08378_769_LGELQGEAASREDTICLLQNEK (UniProt Q08378)	-0.111	-0.211
GLG1_Q92896_659_TETGQELECLQDHLDDLVVECR (UniProt Q92896)	0.00634	-0.0874
GLG1_Q92896_950_FCHGILTK (UniProt Q92896)	0.00679	-0.0594
GNL3_Q9BVP2_156_VIEASDVVLEVLDARDPLGCR (UniProt Q9BVP2)	-0.281	-0.229
GMIP_Q9P107_529_CLETLLILCGHR (UniProt Q9P107)	0.102	0.271
GPATCH8_Q9UKJ3_639_MDAPASGSACSGLNK (UniProt Q9UKJ3)	0.0227	-0.238
GPHN_Q9NQX3_26_VGVLTVSDSCFR (UniProt Q9NQX3)	-0.027	-0.0657
GOLGB1_Q14789_3144_KSDPEELREPQQSFSEAQQQLCNTR (UniProt Q14789)	-0.0219	-0.0547
GNL1_P36915_410_LCDCPGLIFPSLLPR (UniProt P36915)	0.0375	0.118
GNAI2_P04899-6_14_KIIHEDGYSEEECR (UniProt P04899)	0.0446	-0.0273
GMIP_Q9P107_525_ECEAFMVSGTECEECFLTCHK (UniProt Q9P107)	-0.116	0.0352
GOLGA4_Q13439_309_EQCTLLTSEK (UniProt Q13439)	0.00819	-0.0895
GNPNAT1_Q96EK6_113_FIHSCAK (UniProt Q96EK6)	0.225	0.133
GOPC_Q9HD26_81_MTSLSSCFAQLCHK (UniProt Q9HD26)	0.211	0.208
GIT2_Q14161_31+35_GTFLCDECCSVHR (UniProt Q14161)	0.0579	-0.0328
GMPS_P49915_213_NFLYDIAGCSGTFTVQNR (UniProt P49915)	-0.0358	-0.0372
GPD1L_Q8N335_9_VCIVGSGNWGSAVAK (UniProt Q8N335)	-0.197	0.0282
GPD1L_Q8N335_104_ICDEITGR (UniProt Q8N335)	0.0477	-0.0607
GNB1L_Q9BYB4_5_TAPCPPPPPDPQFVLR (UniProt Q9BYB4)	0.293	-0.103
GLRX3_O76003_146_KLTHAAPCMLFMK (UniProt O76003)	-0.269	-0.209
GNB2_P62879_271_ADQELLMYSHDNIICGITSVAFSR (UniProt P62879)	0.198	0.0704
GLS_O94925_518+525_GIHFCHDLVSLCNFHNYDNLR (UniProt O94925)	0.00954	-0.0125

Target	probe-labelled cysteine peptide fold change (10 µM)	probe-labelled cysteine peptide fold change (50 µM)
GNS_P15586_518_LMMLQSCSGPTCR (UniProt P15586)	-0.229	-0.0707
GNAQ_P50148_144_SLWNDPGIQECYDR (UniProt P50148)	-0.0686	-0.0854
GNAS_P63092_3_GCLGNSK (UniProt P63092)	-0.0143	0.00877
GPI_P06744_404_MIPCDFLIPVQTQHPIR (UniProt P06744)	0.0448	0.0525
GLO1_Q04760_61_CDFPIMK (UniProt Q04760)	-0.0348	0.0151
GLA_P06280_223_QYCNHWR (UniProt P06280)	0.0474	-0.0618
GPD2_P43304_45_AADCISEPVNR (UniProt P43304)	0.135	-0.202
GMFB_P60983_8_SESLVVCDVAEDLVEK (UniProt P60983)	-0.123	-0.144
GNB2_P62879_204_TFVSGACDASIK (UniProt P62879)	0.0639	0.0528
GNPDA1_P46926_118_HIDIHPENTHILDGNAVDLQAECDAFEEK (UniProt P46926)	-0.077	0.12
GNL3L_Q9NVN8_518_SNSMVDVCSVDR (UniProt Q9NVN8)	-0.0413	-0.241
GOPC_Q9HD26_76_MTSLSSCFAQLCHK (UniProt Q9HD26)	-0.0907	-0.121
GMPPA_Q96IJ6_335_LRESIVLHGATLQEHTCVLHSIVGWGSTVGR (UniProt Q96IJ6)	-0.0276	-0.0093
GLG1_Q92896_269_DAHSQGEVVSCLEK (UniProt Q92896)	-0.0665	-0.208
GNAI3_P08754_66_IIHEDGYSEDECK (UniProt P08754)	0.166	0.0498
GLOD4_Q9HC38-2_41_VLRHEEFEEGCK (UniProt Q9HC38)	-0.145	-0.287
GMPR2_Q9P2T1_222+224_GHIISDGGCSCPGDVAK (UniProt Q9P2T1)	0.0719	-0.118
GPBP1L1_Q9HC44_365_ENGEEGCHQNGLALPVVEEGEVLSHSLEAEHR (UniProt Q9HC44)	-0.129	-0.256
GLO1_Q04760_139_GFGHIGIAVPDVYSACK (UniProt Q04760)	-0.0576	-0.00736
GNE_Q9Y223_183_ILLAGCPSYDK (UniProt Q9Y223)	0.0878	0.0877
GNAI2_P04899_140_LWADHGVQACFGR (UniProt P04899)	0.0138	0.105
GNAI2_P04899_326_EIYTHFTCATDTK (UniProt P04899)	0.0806	0.165

Target	probe-labelled cysteine peptide fold change (10 µM)	probe-labelled cysteine peptide fold change (50 µM)
GOT2_P00505_382_KEGSTHNWQHITDQIGMFCFTGLKPEQVER (UniProt P00505)	0.00342	0.0459
GLRX3_O76003_146_LTHAAPCMLFMK (UniProt O76003)	-0.112	0.03
GMPS_P49915_489_ACTTEEDQEK (UniProt P49915)	-0.00635	0.106
GOLGB1_Q14789_2279_VCDTLQGENK (UniProt Q14789)	-0.0244	-0.109
GNA13_Q14344_318_DYFLEFEGDPHCLR (UniProt Q14344)	0.3	0.286
GLS_O94925_266_FSPDLWGVSVCTVDGQR (UniProt O94925)	0.109	-0.00933
GNL3_Q9BVP2_113_EFGLCK (UniProt Q9BVP2)	-0.0985	-0.144
GMPPA_Q96IJ6_389_LLPAITILGCR (UniProt Q96IJ6)	0.15	0.0371
GLA_P06280_382_GVACNPACFITQLLPVK (UniProt P06280)	-0.0456	-0.0109
GMDS_O60547_92_LHYGDLTDSTCLVK (UniProt O60547)	-0.0234	0.105
GOLGA2_Q08379_356_CEAPDANQQLQQAMEER (UniProt Q08379)	0.0706	0.0628
GNL2_Q13823_362_IFLIDCPGVVYPSEDSETDIVLK (UniProt Q13823)	-0.0448	0.153
GLA_P06280_382_GVACNPACFITQLLPVKR (UniProt P06280)	-0.267	0.0634
GMFG_O60234_8_SDSLVVCEVDPELTEK (UniProt O60234)	-0.0867	-0.174
GOT2_P00505_382_EGSTHNWQHITDQIGMFCFTGLKPEQVER (UniProt P00505)	-0.0654	-0.227
GLYR1_Q49A26_303_CDLFIQEGAR (UniProt Q49A26)	-0.0208	-0.0795
GNPDA1_P46926_239_TVFVCDEDATLELK (UniProt P46926)	-0.0544	0.07
GPATCH2_Q9NW75_188_TMTQPPEGCRDQDMDSDR (UniProt Q9NW75)	-0.142	-0.402
GLG1_Q92896_970_AKDDSELEGQVISCLK (UniProt Q92896)	-0.127	-0.0527
GPATCH4_Q5T3I0_152_ILTDEMLLQACEGR (UniProt Q5T3I0)	0.108	0.0941
GMPS_P49915_4_ALCNGDSK (UniProt P49915)	0.0174	-0.169
GPD1L_Q8N335_343_PVQEMLSCLQSHPEHT (UniProt Q8N335)	-0.189	0.188

Target	probe-labelled cysteine peptide fold change (10 µM)	probe-labelled cysteine peptide fold change (50 µM)
GMPS_P49915_252_VLVLLSGGVDSTVCTALLNR (UniProt P49915)	-0.153	0.0888
GNB1_P62873_271_ADQELMTYSHDNIICGITSVSFSKSGR (UniProt P62873)	0.0306	0.00182
GNL3_Q9BVP2_280_QEQMCNVGVSMGLTR (UniProt Q9BVP2)	-0.066	-0.0721
GLO1_Q04760_19+20_AEPQPPSGGLTDEAALSCCSDADPSTK (UniProt Q04760)	-0.022	-0.236
GNB1_P62873_25_ACADATLSQITNNIDPVGR (UniProt P62873)	0.0281	-0.0319
GLG1_Q92896_324_FCENTQAGEGR (UniProt Q92896)	0.0937	0.0961
GIT2_Q14161_672_HDSYIPCSER (UniProt Q14161)	0.249	-0.236
GPD2_P43304_188_LYDLVAGSNCLK (UniProt P43304)	-0.204	0.0592
GNB1_P62873_294_LLLAGYDDFNCNVWDALK (UniProt P62873)	0.00644	0.00914
GPATCH8_Q9UKJ3_402_EEGAGATEPEYYHYIPPAHCK (UniProt Q9UKJ3)	-0.0792	-0.165
GPHN_Q9NQX3_284_LSTASCPTPK (UniProt Q9NQX3)	-0.0997	-0.273
GMPS_P49915_530_SYSYVCGISSK (UniProt P49915)	0.226	0.263
GNL3_Q9BVP2_131_KLYCQELK (UniProt Q9BVP2)	-0.154	-0.278
GOT2_P00505_187+212_TCGFDFTGAVEDISKIPEQSVLLLHACAHNPTGVDPRPEQWK (UniProt P00505)	-0.113	-0.363
GPATCH8_Q9UKJ3_508_VSETQMCESNSSK (UniProt Q9UKJ3)	-0.113	-0.231
GLG1_Q92896_767_LCPNIK (UniProt Q92896)	0.0706	0.244
GNE_Q9Y223_296_HVPFDQFIQLVAHAGCMIGNSSCGVR (UniProt Q9Y223)	0.388	-0.027
GMIP_Q9P107_895_LCEETPITSVPR (UniProt Q9P107)	0.0542	-0.00741
GNAI2_P04899_255_LFDSICNNK (UniProt P04899)	0.101	0.117
